Substitutions are numbered along the chain they refer to. Names may count otherwise. No constants are given. Whether binding was seen depends on the method and setting. For part of these data: Binding seen in cells or lysates may run through a third protein. Some entries that bind do so weakly or less than the wild type. Tags and fused reporters may be left off the sequences shown. One block for each binder: values may come before it.
Key:
[1] = biological target: T1, Flag-Psmd4b (proteasome 26S subunit, non-ATPase 4b), expressed in HEK293T (zebrafish) (UniProt Q561Y1); test: co-IP; HEK293T cells transfected with the tagged proteins, in some panels MG132 for 5 hours prior to harvest or CDK4 / CDK4-K38M co-expressed; TNE lysis buffer, anti-Flag-agarose or protein A-Sepharose beads, 4 °C for 4 hours
T1 sequence: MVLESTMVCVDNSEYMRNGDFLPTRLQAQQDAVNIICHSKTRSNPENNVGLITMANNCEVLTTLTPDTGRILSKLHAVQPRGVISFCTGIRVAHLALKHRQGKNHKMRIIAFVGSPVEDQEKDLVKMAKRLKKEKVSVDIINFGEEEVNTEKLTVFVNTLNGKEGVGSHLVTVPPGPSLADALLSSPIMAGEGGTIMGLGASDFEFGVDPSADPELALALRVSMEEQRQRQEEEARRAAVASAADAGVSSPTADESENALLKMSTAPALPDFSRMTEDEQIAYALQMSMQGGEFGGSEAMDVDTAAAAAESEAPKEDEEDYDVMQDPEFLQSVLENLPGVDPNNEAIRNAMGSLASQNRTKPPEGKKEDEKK

[2] = biological target: T2, Flag-Psmd4b expressed in zebrafish embryos (zebrafish) (UniProt Q561Y1); test: co-IP; lysates of bud-stage zebrafish embryos expressing the tagged partner from injected mRNA; TNE lysis buffer (10 mM Tris-HCl pH 7.5, 150 mM NaCl, 2 mM EDTA, 0.5% Nonidet P-40), 4 °C for 4 hours; endogenous zFoxj1a detected by blot
T2 sequence: T1 sequence

[3] = biological target: Flag-zFoxj1a (zebrafish forkhead box j1a) (zebrafish) (UniProt F1QDF8); test: co-IP; HEK293T cells transfected with the tagged proteins, in some panels MG132 for 5 hours prior to harvest or CDK4 / CDK4-K38M co-expressed; TNE lysis buffer, anti-Flag-agarose or protein A-Sepharose beads, 4 °C for 4 hours
[4] = biological target: Flag-zFoxj1a-T102D (zebrafish) (UniProt F1QDF8); test: as above
[5] = biological target: T3, GST-zFoxj1a (zebrafish) (UniProt F1QDF8); test: pull-down; GST-Foxj1a (or GST) immobilised on Glutathione-Sepharose 4B beads, incubated with the purified protein at 4 °C for 3 hours; western blot; both purified
T3 sequence: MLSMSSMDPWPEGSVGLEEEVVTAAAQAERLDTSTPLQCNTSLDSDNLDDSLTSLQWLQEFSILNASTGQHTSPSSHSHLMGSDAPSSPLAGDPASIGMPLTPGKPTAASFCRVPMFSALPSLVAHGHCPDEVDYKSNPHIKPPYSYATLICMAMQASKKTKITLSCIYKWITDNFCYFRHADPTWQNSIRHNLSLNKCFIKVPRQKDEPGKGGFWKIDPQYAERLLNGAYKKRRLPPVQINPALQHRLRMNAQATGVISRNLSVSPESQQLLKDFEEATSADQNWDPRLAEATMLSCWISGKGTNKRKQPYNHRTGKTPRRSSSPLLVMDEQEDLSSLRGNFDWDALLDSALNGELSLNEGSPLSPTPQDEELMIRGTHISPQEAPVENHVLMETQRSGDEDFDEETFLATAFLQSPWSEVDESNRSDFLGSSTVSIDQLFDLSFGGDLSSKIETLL

B2: endogenous zFoxj1a (protein, UniProt F1QDF8 1-458)
chain: T3 sequence
binding [2]: binds

B4: Flag-zFoxj1a (zebrafish forkhead box j1a) (natural protein, UniProt F1QDF8 1-458, looked up)
chain: T3 sequence
notes: forkhead box j1a (Foxj1a), zebrafish; In the self-association co-IP the second copy carried an HA tag instead of Flag (HA-zFoxj1a); also called Flag-tagged zFoxj1a; wild-type zFoxj1a; source: HEK293T, transfected, in lysate
binding [3]: binds

B5: Flag-zFoxj1a-T102D (natural protein, zebrafish, UniProt F1QDF8 1-458, looked up)
chain: T3 sequence with T102D
notes: forkhead box j1a (Foxj1a), zebrafish; In the self-association co-IP the second copy was differently tagged (HA); also called phospho-mimicking mutant of zFoxj1a; T102D mutant; source: HEK293T, transfected, in lysate
binding [4]: binds

The next lines start with the values.

binding [1]: binds
B1: zFoxj1a-T102A co-expressed with Psmd4b (protein, UniProt F1QDF8 1-458)
chain: T3 sequence with T102A

binding [1]: binds
B3: zFoxj1a overexpressed together with Flag-Psmd4b (protein, UniProt F1QDF8 1-458)
chain: T3 sequence

binding [5]: binds
B6: recombinant Flag-Psmd4b (protein, UniProt Q561Y1 1-372)
chain: T1 sequence
